Results from cells or extracts need not show a direct contact.
Target: NF-kB p65 (RelA) (UniProt Q04206)
Test: competition with a labelled probe
Conditions: protein in an extract

By UniProt entry, the sequences of proteins in these tests, tags left out.
UniProt Q04206, whole entry: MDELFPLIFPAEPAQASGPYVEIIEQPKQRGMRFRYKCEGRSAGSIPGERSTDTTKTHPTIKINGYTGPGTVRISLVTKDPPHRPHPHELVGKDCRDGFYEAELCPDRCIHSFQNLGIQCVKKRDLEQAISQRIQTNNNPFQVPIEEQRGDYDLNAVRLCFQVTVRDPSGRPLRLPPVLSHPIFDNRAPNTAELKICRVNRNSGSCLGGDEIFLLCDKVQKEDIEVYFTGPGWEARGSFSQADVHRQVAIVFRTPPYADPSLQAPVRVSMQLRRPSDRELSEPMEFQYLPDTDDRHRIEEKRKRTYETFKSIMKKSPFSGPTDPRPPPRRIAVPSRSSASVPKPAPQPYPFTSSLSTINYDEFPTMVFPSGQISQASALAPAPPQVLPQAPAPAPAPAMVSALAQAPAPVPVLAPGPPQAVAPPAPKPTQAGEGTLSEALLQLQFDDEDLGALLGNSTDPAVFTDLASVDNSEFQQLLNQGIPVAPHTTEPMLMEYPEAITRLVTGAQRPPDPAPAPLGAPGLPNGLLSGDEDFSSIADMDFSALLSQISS

Q: For “CCCGGGATTTCCCACC (double strand) [FSODN8]”, which IC50 (PS only in flanks and flank-core bonds, variant of SODN8) is on record?
A: > 100 nM

Q: With CCCGGGATTTCCCACC (double strand) [ODN8] as the sequence, how does the IC50 (no phosphorothioate, variant of SODN8) read?
A: > 100 nM

Q: “CCCTGGGATTTCCCGCC (double strand) [FSODN17]” was tested. Which IC50 (PS only in flanks and flank-core bonds, variant of SODN17) did it give?
A: > 100 nM

Q: Which IC50 (no phosphorothioate, variant of SODN17) does the source give for “CCCTGGGATTTCCCGCC (double strand) [ODN17]” here?
A: > 100 nM

Q: “CGCAGGGATTTCCCGCG (double strand) [ODN16]” was tested. Which IC50 (no phosphorothioate, variant of SODN16) did it give?
A: > 100 nM

Q: “CGCGGGATTTCCCAGC (double strand) [FSODN7]” was tested. Which IC50 (PS only in flanks and flank-core bonds (CsGsCsGGGATTTCCCsAsGsC), variant of SODN7) did it give?
A: > 100 nM

Q: How did the IC50 (no phosphorothioate, variant of SODN7) turn out when CGCGGGATTTCCCAGC (double strand) [ODN7] was run?
A: > 100 nM

Q: How did the IC50 (PS only in flanks and flank-core bonds, variant of SODN9) turn out when “GGAGGGATTTCCCGGG (double strand) [FSODN9]” was run?
A: > 100 nM

Q: For GGAGGGATTTCCCGGG (double strand) [ODN9], which IC50 (no phosphorothioate, variant of SODN9) is on record?
A: > 100 nM

Q: “GGCTGGGATTTCCCGCGG (double strand) [FSODN30]” was tested. Which IC50 (PS only in flanks and flank-core bonds, variant of SODN30) did it give?
A: > 100 nM

Q: With “GGCTGGGATTTCCCGCGG (double strand) [ODN30]” as the sequence, how does the IC50 (no phosphorothioate, variant of SODN30) read?
A: > 100 nM
